This note sets out measurements from US20140066324A1, “GENE EXPRESSION SIGNATURE IN SKIN PREDICTS RESPONSE TO MYCOPHENOLATE MOFETIL” (NORTHWESTERN UNIVERSITY, priority 2011, published 2014).

This data set concerns adult human dermal fibroblasts. Put plainly: Cytokine gene expression signatures in cultured adult human dermal fibroblasts. In kind it is cell-based.

With “IL-4: pro-fibrotic cytokine IL-4 (NM_000589)”, the “overlap of inducible genes between IL-13 and IL-4” value was “approximately 60%”.

Turning to “IL-13: pro-fibrotic cytokine IL-13 (NM_002188)”, the “number of genes of the gene signature” value came out at 490; the “overlap of inducible genes between IL-13 and IL-4” value is reported as “approximately 60%”.
